Reference: the supplement of paper PMC12823440, “Inhibitors supercharge kinase turnover through native proteolytic circuits” (Nature, 2025)
Where a name gives a salt, the structure may show the parent alone. The list shows a part of the results. Hit calls seldom repeat between salt and free forms of one compound.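 Kinases, fused to nanoluciferase, were expressed in K562 cells; luminescence was measured every 4 h from 2 to 18 h as percent of control (DMSO = 100%, positive control = 0%). A time point is decreased if signal falls significantly (2 sigma). Hits were called by the authors by a rule that is not shown; the count of time points alone does not decide it.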

Sequences of proteins named here, by UniProt entry; tags and fusion partners are left off. A change or cut given only in a name is not applied to a line headed by its entry.
UniProt Q9Y616: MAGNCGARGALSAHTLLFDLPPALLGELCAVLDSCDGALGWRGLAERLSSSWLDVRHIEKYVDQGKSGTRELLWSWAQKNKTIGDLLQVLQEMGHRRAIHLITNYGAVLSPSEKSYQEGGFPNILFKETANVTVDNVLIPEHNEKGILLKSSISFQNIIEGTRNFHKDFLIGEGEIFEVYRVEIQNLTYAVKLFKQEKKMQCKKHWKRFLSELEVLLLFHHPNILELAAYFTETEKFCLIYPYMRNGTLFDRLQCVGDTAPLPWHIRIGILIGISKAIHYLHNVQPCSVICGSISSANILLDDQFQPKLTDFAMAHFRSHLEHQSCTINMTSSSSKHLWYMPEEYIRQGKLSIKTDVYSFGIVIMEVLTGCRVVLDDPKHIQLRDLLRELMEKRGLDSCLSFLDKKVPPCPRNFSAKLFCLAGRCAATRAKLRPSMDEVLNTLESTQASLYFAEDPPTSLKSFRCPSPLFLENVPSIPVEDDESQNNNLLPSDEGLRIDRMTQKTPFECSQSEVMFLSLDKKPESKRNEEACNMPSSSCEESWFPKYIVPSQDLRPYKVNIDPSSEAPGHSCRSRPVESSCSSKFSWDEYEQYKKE
UniProt P06239: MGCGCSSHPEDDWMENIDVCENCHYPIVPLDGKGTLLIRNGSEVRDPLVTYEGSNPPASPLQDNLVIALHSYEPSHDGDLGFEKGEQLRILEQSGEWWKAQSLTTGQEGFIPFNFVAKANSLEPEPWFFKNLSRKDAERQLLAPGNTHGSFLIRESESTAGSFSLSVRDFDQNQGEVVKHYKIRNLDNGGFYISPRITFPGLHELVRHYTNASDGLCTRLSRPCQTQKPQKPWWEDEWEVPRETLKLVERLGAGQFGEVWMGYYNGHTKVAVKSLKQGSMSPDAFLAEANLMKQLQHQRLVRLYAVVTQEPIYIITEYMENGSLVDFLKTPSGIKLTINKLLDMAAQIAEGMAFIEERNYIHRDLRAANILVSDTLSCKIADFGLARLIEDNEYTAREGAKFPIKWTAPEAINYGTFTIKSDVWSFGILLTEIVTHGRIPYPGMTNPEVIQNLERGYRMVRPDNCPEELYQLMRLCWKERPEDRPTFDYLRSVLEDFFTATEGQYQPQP
UniProt Q8IWU2: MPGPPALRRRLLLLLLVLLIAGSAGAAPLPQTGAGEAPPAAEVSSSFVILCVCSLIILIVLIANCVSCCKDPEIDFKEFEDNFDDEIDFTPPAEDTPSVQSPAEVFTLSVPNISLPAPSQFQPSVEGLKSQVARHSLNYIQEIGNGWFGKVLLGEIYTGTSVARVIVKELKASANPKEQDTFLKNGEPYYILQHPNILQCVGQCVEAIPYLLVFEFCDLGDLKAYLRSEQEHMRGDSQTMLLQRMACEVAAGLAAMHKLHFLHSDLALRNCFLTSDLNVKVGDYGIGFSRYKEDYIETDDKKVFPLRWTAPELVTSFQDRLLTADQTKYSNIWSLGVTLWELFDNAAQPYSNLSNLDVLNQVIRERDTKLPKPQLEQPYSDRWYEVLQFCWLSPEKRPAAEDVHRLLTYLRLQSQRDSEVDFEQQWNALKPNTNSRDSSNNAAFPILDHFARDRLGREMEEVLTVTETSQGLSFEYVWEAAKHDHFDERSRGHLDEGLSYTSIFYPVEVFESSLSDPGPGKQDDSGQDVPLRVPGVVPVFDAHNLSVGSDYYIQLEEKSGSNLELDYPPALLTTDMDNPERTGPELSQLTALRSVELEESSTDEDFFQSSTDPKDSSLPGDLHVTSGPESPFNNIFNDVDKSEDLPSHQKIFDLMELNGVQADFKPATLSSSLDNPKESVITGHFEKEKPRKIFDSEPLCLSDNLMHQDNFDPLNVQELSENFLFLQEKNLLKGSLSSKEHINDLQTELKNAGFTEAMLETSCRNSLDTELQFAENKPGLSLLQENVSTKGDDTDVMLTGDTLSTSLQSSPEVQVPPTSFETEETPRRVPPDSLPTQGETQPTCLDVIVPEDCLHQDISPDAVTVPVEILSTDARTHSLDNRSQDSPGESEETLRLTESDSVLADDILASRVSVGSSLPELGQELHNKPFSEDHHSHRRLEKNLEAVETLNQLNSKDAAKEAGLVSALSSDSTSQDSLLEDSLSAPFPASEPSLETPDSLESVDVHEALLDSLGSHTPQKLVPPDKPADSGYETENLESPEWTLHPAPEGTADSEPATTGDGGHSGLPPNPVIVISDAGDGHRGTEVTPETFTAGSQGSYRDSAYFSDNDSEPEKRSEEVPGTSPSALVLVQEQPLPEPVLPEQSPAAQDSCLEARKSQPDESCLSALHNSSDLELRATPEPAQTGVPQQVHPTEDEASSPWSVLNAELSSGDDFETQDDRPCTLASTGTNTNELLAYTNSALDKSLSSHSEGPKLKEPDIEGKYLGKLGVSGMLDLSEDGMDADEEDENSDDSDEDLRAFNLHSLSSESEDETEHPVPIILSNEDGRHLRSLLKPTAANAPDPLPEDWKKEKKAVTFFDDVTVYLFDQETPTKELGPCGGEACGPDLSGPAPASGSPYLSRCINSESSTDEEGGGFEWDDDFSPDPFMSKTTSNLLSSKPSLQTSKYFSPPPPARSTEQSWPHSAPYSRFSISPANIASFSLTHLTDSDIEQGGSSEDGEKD
UniProt Q12851: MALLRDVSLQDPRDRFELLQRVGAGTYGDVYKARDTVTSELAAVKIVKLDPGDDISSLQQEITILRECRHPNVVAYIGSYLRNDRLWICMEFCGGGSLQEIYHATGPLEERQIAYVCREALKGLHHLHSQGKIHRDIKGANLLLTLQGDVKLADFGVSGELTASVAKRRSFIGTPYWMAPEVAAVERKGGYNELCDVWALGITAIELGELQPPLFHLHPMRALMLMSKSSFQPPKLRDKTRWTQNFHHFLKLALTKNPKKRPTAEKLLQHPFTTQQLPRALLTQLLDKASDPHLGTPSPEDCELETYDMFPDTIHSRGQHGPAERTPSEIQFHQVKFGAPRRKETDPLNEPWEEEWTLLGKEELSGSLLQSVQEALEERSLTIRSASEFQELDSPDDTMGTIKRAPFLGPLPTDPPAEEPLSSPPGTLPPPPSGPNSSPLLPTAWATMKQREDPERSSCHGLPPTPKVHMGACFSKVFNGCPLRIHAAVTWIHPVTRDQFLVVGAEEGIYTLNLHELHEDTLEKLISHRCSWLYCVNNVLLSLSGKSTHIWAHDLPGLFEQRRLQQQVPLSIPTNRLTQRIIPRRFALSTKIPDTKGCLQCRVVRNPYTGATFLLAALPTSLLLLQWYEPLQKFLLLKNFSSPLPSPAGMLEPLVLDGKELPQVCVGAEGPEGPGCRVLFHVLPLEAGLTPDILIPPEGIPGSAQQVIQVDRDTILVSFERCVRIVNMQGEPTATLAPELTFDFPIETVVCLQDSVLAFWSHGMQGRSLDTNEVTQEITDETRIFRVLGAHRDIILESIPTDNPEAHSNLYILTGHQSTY
UniProt P31152, whole entry: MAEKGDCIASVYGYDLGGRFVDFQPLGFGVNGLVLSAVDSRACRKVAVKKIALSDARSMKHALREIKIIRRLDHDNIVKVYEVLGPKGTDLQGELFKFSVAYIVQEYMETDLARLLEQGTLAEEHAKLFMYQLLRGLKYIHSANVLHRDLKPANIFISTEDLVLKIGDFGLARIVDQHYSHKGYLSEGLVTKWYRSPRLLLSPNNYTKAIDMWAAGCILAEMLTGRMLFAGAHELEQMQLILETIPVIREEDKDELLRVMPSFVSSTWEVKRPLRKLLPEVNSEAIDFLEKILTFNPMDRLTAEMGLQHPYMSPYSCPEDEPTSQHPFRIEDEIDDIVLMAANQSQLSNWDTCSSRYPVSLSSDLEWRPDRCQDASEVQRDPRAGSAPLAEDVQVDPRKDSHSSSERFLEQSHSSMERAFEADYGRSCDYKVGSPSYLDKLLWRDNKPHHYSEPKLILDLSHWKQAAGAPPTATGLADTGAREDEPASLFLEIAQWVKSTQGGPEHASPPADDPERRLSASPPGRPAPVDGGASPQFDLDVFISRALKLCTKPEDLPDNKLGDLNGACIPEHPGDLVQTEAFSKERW
UniProt P49137, whole entry, looked up: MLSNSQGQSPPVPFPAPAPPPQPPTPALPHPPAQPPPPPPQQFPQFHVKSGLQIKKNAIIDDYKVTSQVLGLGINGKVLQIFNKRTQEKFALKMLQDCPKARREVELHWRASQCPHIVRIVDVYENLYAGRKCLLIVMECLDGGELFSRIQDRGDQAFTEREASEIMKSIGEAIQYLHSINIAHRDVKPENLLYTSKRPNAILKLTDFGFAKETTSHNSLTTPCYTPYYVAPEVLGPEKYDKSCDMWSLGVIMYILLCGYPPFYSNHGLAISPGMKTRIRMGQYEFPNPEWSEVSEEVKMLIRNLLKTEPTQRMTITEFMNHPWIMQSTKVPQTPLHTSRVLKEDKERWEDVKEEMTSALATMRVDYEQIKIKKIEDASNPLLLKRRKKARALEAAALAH
UniProt Q9BUB5: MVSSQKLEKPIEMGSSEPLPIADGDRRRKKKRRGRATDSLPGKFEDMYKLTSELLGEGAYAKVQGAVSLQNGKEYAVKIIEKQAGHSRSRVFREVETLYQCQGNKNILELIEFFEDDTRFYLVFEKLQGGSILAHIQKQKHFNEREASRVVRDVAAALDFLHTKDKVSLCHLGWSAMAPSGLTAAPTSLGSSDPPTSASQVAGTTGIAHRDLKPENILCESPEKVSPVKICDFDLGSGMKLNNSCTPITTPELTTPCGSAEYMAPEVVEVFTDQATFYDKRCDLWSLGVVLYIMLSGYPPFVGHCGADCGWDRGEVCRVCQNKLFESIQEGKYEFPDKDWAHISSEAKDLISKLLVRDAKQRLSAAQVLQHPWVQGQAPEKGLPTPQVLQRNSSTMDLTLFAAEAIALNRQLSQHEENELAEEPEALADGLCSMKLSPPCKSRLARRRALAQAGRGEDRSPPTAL
UniProt Q16288, whole entry, looked up: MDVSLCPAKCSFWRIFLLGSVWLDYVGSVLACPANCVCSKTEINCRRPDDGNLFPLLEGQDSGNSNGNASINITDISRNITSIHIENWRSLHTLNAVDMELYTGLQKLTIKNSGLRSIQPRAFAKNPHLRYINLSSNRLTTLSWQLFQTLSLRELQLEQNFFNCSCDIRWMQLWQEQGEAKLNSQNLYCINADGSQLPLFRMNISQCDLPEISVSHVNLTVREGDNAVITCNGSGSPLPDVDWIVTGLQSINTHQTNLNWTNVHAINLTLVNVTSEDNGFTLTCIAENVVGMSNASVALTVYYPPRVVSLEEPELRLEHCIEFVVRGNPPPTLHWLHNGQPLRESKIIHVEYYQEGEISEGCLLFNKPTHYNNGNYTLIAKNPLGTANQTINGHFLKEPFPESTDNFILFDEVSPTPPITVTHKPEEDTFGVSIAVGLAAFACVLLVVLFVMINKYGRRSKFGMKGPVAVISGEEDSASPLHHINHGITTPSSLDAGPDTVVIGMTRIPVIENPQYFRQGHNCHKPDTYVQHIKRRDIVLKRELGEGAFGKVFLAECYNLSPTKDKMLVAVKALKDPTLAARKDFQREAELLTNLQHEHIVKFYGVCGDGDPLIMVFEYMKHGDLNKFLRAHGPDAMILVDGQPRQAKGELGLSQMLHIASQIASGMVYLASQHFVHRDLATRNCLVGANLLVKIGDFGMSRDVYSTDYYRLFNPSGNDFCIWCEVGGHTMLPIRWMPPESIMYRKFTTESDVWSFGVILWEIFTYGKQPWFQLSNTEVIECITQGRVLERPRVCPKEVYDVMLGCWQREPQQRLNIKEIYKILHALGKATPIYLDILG
UniProt Q96KB5: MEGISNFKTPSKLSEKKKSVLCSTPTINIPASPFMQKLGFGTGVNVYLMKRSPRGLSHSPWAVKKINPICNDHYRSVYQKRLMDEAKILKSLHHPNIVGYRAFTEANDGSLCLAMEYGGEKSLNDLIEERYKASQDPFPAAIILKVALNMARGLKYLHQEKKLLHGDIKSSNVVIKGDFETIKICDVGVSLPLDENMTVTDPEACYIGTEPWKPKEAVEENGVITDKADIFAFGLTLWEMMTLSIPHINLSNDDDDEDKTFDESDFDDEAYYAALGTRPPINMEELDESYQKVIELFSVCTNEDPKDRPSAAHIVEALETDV
UniProt Q15118, whole entry, looked up: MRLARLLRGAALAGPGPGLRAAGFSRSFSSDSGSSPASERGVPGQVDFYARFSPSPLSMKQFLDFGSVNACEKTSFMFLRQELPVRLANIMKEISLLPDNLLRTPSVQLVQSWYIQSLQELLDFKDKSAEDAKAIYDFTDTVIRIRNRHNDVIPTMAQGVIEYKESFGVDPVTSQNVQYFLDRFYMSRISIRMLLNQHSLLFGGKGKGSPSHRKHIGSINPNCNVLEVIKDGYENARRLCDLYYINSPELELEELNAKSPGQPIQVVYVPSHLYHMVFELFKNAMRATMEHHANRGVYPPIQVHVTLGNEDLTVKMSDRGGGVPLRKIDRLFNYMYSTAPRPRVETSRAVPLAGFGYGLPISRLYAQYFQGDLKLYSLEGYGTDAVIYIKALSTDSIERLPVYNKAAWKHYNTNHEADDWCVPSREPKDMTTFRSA

Columns and labels:
Experiment in all cases: kinase-Nluc reporter destabilization hit call (1 = scored as downregulated) (binary); higher = compound decreases kinase abundance
Details in all cases: K562; 2-18 h
[1] = target: IRAK3 (UniProt Q9Y616)
[2] = target: JAK1 (UniProt P23458)
[3] = target: LCK (UniProt P06239)
[4] = target: LIMK1 (UniProt P53667)
[5] = target: LIMK2 (UniProt P53671)
[6] = target: LMTK2 (UniProt Q8IWU2)
[7] = target: LYN (UniProt P07948)
[8] = target: MAP2K1 (UniProt Q02750)
[9] = target: MAP2K2 (UniProt P36507)
[10] = target: MAP4K2 (UniProt Q12851)
[11] = target: MAPK1 (UniProt P28482)
[12] = target: MAPK4 (UniProt P31152)
[13] = target: MAPKAPK2 (UniProt P49137)
[14] = target: MKNK1 (UniProt Q9BUB5)
[15] = target: NTRK2 (UniProt Q16620)
[16] = target: NTRK3 (UniProt Q16288)
[17] = target: PAK4 (UniProt O96013)
[18] = target: PBK (UniProt Q96KB5)
[19] = target: PDGFRB (UniProt P09619)
[20] = target: PDK1 (UniProt Q15118)

Measured: kinase-Nluc reporter destabilization hit call

Cn1cc(-c2ccc3nnc(Sc4ccc5ncccc5c4)n3n2)cn1 (10 µM)
inactive: [1] 0 | [2] 0 | [3] 0 | [4] 0 | [5] 0 | [6] 0 | [7] 0 | [8] 0 | [9] 0 | [10] 0 | [11] 0 | [12] 0 | [13] 0 | [14] 0 | [15] 0 | [16] 0 | [17] 0 | [18] 0 | [19] 0 | [20] 0

C=CC(=O)Nc1cccc(Nc2nc(Nc3ccc(N4CCN(C(C)=O)CC4)cc3OC)ncc2C(F)(F)F)c1 [Rociletinib] (10 µM)
inactive: [1] 0 | [2] 0 | [3] 0 | [4] 0 | [5] 0 | [6] 0 | [7] 0 | [8] 0 | [9] 0 | [10] 0 | [11] 0 | [12] 0 | [13] 0 | [14] 0 | [15] 0 | [16] 0 | [17] 0 | [18] 0 | [19] 0 | [20] 0

CCS(=O)(=O)c1ncc(Cl)c(C(=O)N(Cc2ccc(Cl)cc2)Cc2ccco2)n1 (2.5 µM)
inactive: [1] 0 | [2] 0 | [3] 0 | [4] 0 | [5] 0 | [6] 0 | [7] 0 | [8] 0 | [9] 0 | [10] 0 | [11] 0 | [12] 0 | [13] 0 | [14] 0 | [15] 0 | [16] 0 | [17] 0 | [18] 0 | [19] 0 | [20] 0

O=C([O-])c1cc2ccccc2c(Cc2c(O)c(C(=O)[O-])cc3ccccc23)c1O.[Na+].[Na+] [Pamoic acid (disodium)] (10 µM)
inactive: [1] 0 | [2] 0 | [3] 0 | [4] 0 | [5] 0 | [6] 0 | [7] 0 | [8] 0 | [9] 0 | [10] 0 | [11] 0 | [12] 0 | [13] 0 | [14] 0 | [15] 0 | [16] 0 | [17] 0 | [18] 0 | [19] 0 | [20] 0

Cn1cnc(Cn2ccc3ccc(CNCc4[nH]c5ccccc5c4[C@H]4NC(=O)c5ccc(O)cc54)cc32)c1 (10 µM)
inactive: [1] 0 | [2] 0 | [3] 0 | [4] 0 | [5] 0 | [6] 0 | [7] 0 | [8] 0 | [9] 0 | [10] 0 | [11] 0 | [12] 0 | [13] 0 | [14] 0 | [15] 0 | [16] 0 | [17] 0 | [18] 0 | [19] 0 | [20] 0

COc1cc2nccc(Oc3ccc(NC(=O)NC4CC4)c(Cl)c3)c2cc1C(N)=O [Lenvatinib (mesylate)] (10 µM)
inactive: [1] 0 | [2] 0 | [3] 0 | [4] 0 | [5] 0 | [6] 0 | [7] 0 | [8] 0 | [9] 0 | [10] 0 | [11] 0 | [12] 0 | [13] 0 | [14] 0 | [15] 0 | [16] 0 | [17] 0 | [18] 0 | [19] 0 | [20] 0

C[C@H](c1ccnc(Nc2nc3ccc(-c4cc(N(C)C)ncn4)cc3[nH]2)c1)N1CCN(C(=O)CC(F)(F)F)CC1 (2.5 µM)
inactive: [1] 0 | [2] 0 | [3] 0 | [4] 0 | [5] 0 | [6] 0 | [7] 0 | [8] 0 | [9] 0 | [10] 0 | [11] 0 | [12] 0 | [13] 0 | [14] 0 | [15] 0 | [16] 0 | [17] 0 | [18] 0 | [19] 0 | [20] 0

O=C(N/N=C/c1coc2ccccc2c1=O)c1cccnc1 (10 µM)
inactive: [1] 0 | [2] 0 | [3] 0 | [4] 0 | [5] 0 | [6] 0 | [7] 0 | [8] 0 | [9] 0 | [10] 0 | [11] 0 | [12] 0 | [13] 0 | [14] 0 | [15] 0 | [16] 0 | [17] 0 | [18] 0 | [19] 0 | [20] 0

CC1=C(C(=O)O)N2C(=O)[C@@H](NC(=O)[C@H](N)C3=CCC=CC3)[C@H]2SC1 [Cephradine] (10 µM)
inactive: [1] 0 | [2] 0 | [3] 0 | [4] 0 | [5] 0 | [6] 0 | [7] 0 | [8] 0 | [9] 0 | [10] 0 | [11] 0 | [12] 0 | [13] 0 | [14] 0 | [15] 0 | [16] 0 | [17] 0 | [18] 0 | [19] 0 | [20] 0

CN1CCN(c2cccc(Nc3nc4c(-c5ccc(S(C)(=O)=O)cc5)cccn4n3)c2)CC1 (10 µM)
inactive: [1] 0 | [2] 0 | [3] 0 | [4] 0 | [5] 0 | [6] 0 | [7] 0 | [8] 0 | [9] 0 | [10] 0 | [11] 0 | [12] 0 | [13] 0 | [14] 0 | [15] 0 | [16] 0 | [17] 0 | [18] 0 | [19] 0 | [20] 0

COc1cc(Nc2ncc(F)c(Nc3ccc4c(n3)N(COP(=O)(O)O)C(=O)C(C)(C)O4)n2)cc(OC)c1OC [Fostamatinib (disodium hexahydrate)] (10 µM)
inactive: [1] 0 | [2] 0 | [3] 0 | [4] 0 | [5] 0 | [6] 0 | [7] 0 | [8] 0 | [9] 0 | [10] 0 | [11] 0 | [12] 0 | [13] 0 | [14] 0 | [15] 0 | [16] 0 | [17] 0 | [18] 0 | [19] 0 | [20] 0

Cc1cc(CN2CCN(c3c(Br)cnc4nc(-c5ccc(N6CCN(C)CC6)cc5)[nH]c34)CC2)no1 (2.5 µM)
inactive: [1] 0 | [2] 0 | [3] 0 | [4] 0 | [5] 0 | [6] 0 | [7] 0 | [8] 0 | [9] 0 | [10] 0 | [11] 0 | [12] 0 | [13] 0 | [14] 0 | [15] 0 | [16] 0 | [17] 0 | [18] 0 | [19] 0 | [20] 0

CCOC(=O)N1CCN(C(=O)[C@H](Cc2cccc(C(=N)N)c2)NS(=O)(=O)c2c(C(C)C)cc(C(C)C)cc2C(C)C)CC1 (10 µM)
inactive: [1] 0 | [2] 0 | [3] 0 | [4] 0 | [5] 0 | [6] 0 | [7] 0 | [8] 0 | [9] 0 | [10] 0 | [11] 0 | [12] 0 | [13] 0 | [14] 0 | [15] 0 | [16] 0 | [17] 0 | [18] 0 | [19] 0 | [20] 0

N#Cc1c(C2CCNCC2)cc(-c2c(O)cccc2OCC2CC2)nc1N [ACHP (Hydrochloride)] (10 µM)
inactive: [1] 0 | [2] 0 | [3] 0 | [4] 0 | [5] 0 | [6] 0 | [7] 0 | [8] 0 | [9] 0 | [10] 0 | [11] 0 | [12] 0 | [13] 0 | [14] 0 | [15] 0 | [16] 0 | [17] 0 | [18] 0 | [19] 0 | [20] 0

COc1cccc(OC)c1C(=O)OCc1cc(O)ccc1O[C@@H]1O[C@H](CO)[C@@H](O)[C@H](O)[C@H]1O [Curculigoside] (10 µM)
inactive: [1] 0 | [2] 0 | [3] 0 | [4] 0 | [5] 0 | [6] 0 | [7] 0 | [8] 0 | [9] 0 | [10] 0 | [11] 0 | [12] 0 | [13] 0 | [14] 0 | [15] 0 | [16] 0 | [17] 0 | [18] 0 | [19] 0 | [20] 0

O=C(NCCN1CCCC1)c1cc(-c2ccc(CN3CCOCC3)cc2)nc2ccc(F)cc12 (10 µM)
inactive: [1] 0 | [2] 0 | [3] 0 | [4] 0 | [5] 0 | [6] 0 | [7] 0 | [8] 0 | [9] 0 | [10] 0 | [11] 0 | [12] 0 | [13] 0 | [14] 0 | [15] 0 | [16] 0 | [17] 0 | [18] 0 | [19] 0 | [20] 0

NC(=O)c1nc(Nc2ccccc2)sc1NC(=O)C1CCCCC1 (10 µM)
inactive: [1] 0 | [2] 0 | [3] 0 | [4] 0 | [5] 0 | [6] 0 | [7] 0 | [8] 0 | [9] 0 | [10] 0 | [11] 0 | [12] 0 | [13] 0 | [14] 0 | [15] 0 | [16] 0 | [17] 0 | [18] 0 | [19] 0 | [20] 0

Fetched by structure from the entries so far, two records:
N#Cc1c(C2CCNCC2)cc(-c2c(O)cccc2OCC2CC2)nc1N [ACHP (Hydrochloride)] (10 µM)
inactive: [1] 0 | [2] 0 | [3] 0 | [4] 0 | [5] 0 | [6] 0 | [7] 0 | [8] 0 | [9] 0 | [10] 0 | [11] 0 | [12] 0 | [13] 0 | [14] 0 | [15] 0 | [16] 0 | [17] 0 | [18] 0 | [19] 0 | [20] 0

CCOC(=O)N1CCN(C(=O)[C@H](Cc2cccc(C(=N)N)c2)NS(=O)(=O)c2c(C(C)C)cc(C(C)C)cc2C(C)C)CC1 (10 µM)
inactive: [1] 0 | [2] 0 | [3] 0 | [4] 0 | [5] 0 | [6] 0 | [7] 0 | [8] 0 | [9] 0 | [10] 0 | [11] 0 | [12] 0 | [13] 0 | [14] 0 | [15] 0 | [16] 0 | [17] 0 | [18] 0 | [19] 0 | [20] 0

Next part

Cn1cnc2c(F)c(Nc3ccc(Br)cc3Cl)c(C(=O)NOCCO)cc21 [Selumetinib] (10 µM)
inactive: [1] 0 | [2] 0 | [3] 0 | [4] 0 | [5] 0 | [6] 0 | [7] 0 | [8] 0 | [9] 0 | [10] 0 | [11] 0 | [12] 0 | [13] 0 | [14] 0 | [15] 0 | [16] 0 | [17] 0 | [18] 0 | [19] 0 | [20] 0
